# Test results taken from article PMC4457860, “In Vitro Interaction of the Housekeeping SecA1 with the Accessory SecA2 Protein of Mycobacterium tuberculosis” (PLoS ONE, 2015).
# Results are given in words; binding and its absence hold for the method and conditions named. Sequences can lack the tags named with a protein.
# Molecular target: Mycobacterium tuberculosis SecA2 (unlabeled) (Mycobacterium tuberculosis strain H37Rv) (UniProt P9WGP3)
# Test: SEC; Superdex 200 10/300 GL, 0.5 ml/min, 20 mM HEPES-KOH pH 7.5, 2 mM MgCl2, 50 mM arginine, high salt (300 mM KCl); protein 2-5 mg/ml; both purified
binder,measurement,value
"Mycobacterium tuberculosis SecA2 (unlabeled) (natural protein, No tag; molecular mass 85 kDa on SDS-PAGE; also called PIP152) MVPKTTRAQPGRLSSRFWRLLGASTEKNRSRSLADVTASAEYDKEAADLSDEKLRKAAGLLNLDDLAESADIPQFLAIAREAAERRTGLRPFDVQLLGALRMLAGDVIEMATGEGKTLAGAIAAAGYALAGRHVHVVTINDYLARRDAEWMGPLLDAMGLTVGWITADSTPDERRTAYDRDVTYASVNEIGFDVLRDQLVTDVNDLVSPNPDVALIDEADSVLVDEALVPLVLAGTTHRETPRLEIIRLVAELVGDKDADEYFATDSDNRNVHLTEHGARKVEKALGGIDLYSEEHVGTTLTEVNVALHAHVLLQRDVHYIVRDDAVHLINASRGRIAQLQRWPDGLQAAVEAKEGIETTETGEVLDTITVQALINRYATVCGMTGTALAAGEQLRQFYQLGVSPIPPNKPNIREDEADRVYITTAAKNDGIVEHITEVHQRGQPVLVGTRDVAESEELHERLVRRGVPAVVLNAKNDAEEARVIAEAGKYGAVTVSTQMAGRGTDIRLGGSDEADHDRVAELGGLHVVGTGRHHTERLDNQLRGRAGRQGDPGSSVFFSSWEDDVVAANLDHNKLPMATDENGRIVSPRTGSLLDHAQRVAEGRLLDVHANTWRYNQLIAQQRAIIVERRNTLLRTVTAREELAELAPKRYEELSDKVSEERLETICRQIMLYHLDRGWADHLAYLADIRESIHLRALGRQNPLDEFHRMAVDAFASLAADAIEAAQQTFETANVLDHEPGLDLSKLARPTSTWTYMVNDNPLSDDTLSALSLPGVFR",binding,no binding (condition: high salt buffer (300 mM KCl))
